# Data as given in patent US20140154735A1, “TUMOUR CELL AND TISSUE CULTURE” (CAPSANT NEUROTECHNOLOGIES LTD., priority 2011, published 2014).
# “Also recorded” adds a separate entry of the source. At least one compound was matched to its structure with a doubt left.
# Experiments:
# [1] = test system: LN-18 cells; assay: 2D monolayer culture of LN-18-GFP tumour cells alone, fluorescence growth readout; type: cell-based, human; conditions: TMZ 1, 5 and 10 μM (up to 10 μM), up to day 13
# Procedure: (§1) Human glioblastoma tumour cell lines, LN-18 (ATCC #CRL2610) were cultured and were transfected with either green fluorescent protein (GFP) expressing plasmids or red fluorescent protein (RFP) expressing plasmids. Cells were cultured and plated onto 6 well plates, at 1×10^5 cells per well, grown overnight and checked to see ˜75% confluence. The cells were transfected with pEGFP-N3 (BD Biosciences cat no #6080-1) using Gene Juice (Novagen cat no #70967-EA) as per manufacturer's protocols. 24 hours after transfection, the cells were selected with Geneticin (GIBCO cat no #10131-019), a population of selected cells were used in the experiments. […] The transfected tumour cells (LN-18) were treated with trypsin/EDTA (sigma#T4299) to remove them from the flask, resuspended in culture media, The viable cells were counted using trypan blue exclusion The suspension was centrifuged at 1000 rpm/3 minutes and the resultant cell pellet resuspended to 50,000 cells/μl.
# For the monolayer cultures of tumour cells alone (2D) LN-18_GFP cells were plated into 24 well plates at a concentration of 10^4 cells per well and after 2 hours treated with the same concentrations of TMZ as the organotypic co-cultures. Control organotypic co-cultures and 2D cultures were also monitored to compare normal growth of the tumour cells with that after addition of the TMZ. […]
# [2] = test system: LN-18 cells; assay: 3D organotypic co-culture of LN-18-GFP tumour cells in rat brain cell matrix, treated at seeding; type: cell-based, human; conditions: added at seeding
# Procedure: as §1, with “experiments. A population of selected cells were cultured over prolonged periods of time with occasional selection to maintain a population of transfected cells.” for “experiments.”
# The organotypic cultures were produced by preparing dissociated cells from isolated rat cortex. […] The viable cells were counted using Trypan blue exclusion and the cell pellet resuspended to 50,000 cells/μl. […]
# [3] = test system: established glioblastoma tumour cell clusters in GBM/brain co-cultures; assay: Tumour regression in established GBM/brain co-cultures, treatment started three days after seeding; type: cell-based; conditions: Temozolomide 5 or 10 μM
# Text: Chemotherapies are given to patients with established tumours and are poorly effective.
# Thus, also in terms of tumour regression, the properties of the co-cultures of the invention are representative of the clinical situation.
smiles,measurement,setting,value
"Cn1nnc2c(C(N)=O)ncn2c1=O [TMZ, Temozolomide]",effect on tumour cell number/growth versus untreated control (average % fluorescence),[1],little response; also recorded: little reduction in growth of tumour cells
same,effect on tumour cell number (average % fluorescence),[2]; TMZ 1 μM,continued to show an increase in cell number
same,effect on tumour cell number (average % fluorescence),[2]; TMZ 5 and 10 μM,cell number fell slightly from day 3
same,activity on established GBM/brain co-cultures (tumour cell expansion),[3],poorly active
